Laboratory results from the supplement of paper PMC12823440, “Inhibitors supercharge kinase turnover through native proteolytic circuits” (Nature, 2025).
Structures can show the parent of a compound that is named as a salt. The list shows a part of the results. The calls rarely recur for the same compound in another form.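 Kinases, fused to nanoluciferase, were expressed in K562 cells; luminescence was measured every 4 h from 2 to 18 h as percent of control (DMSO = 100%, positive control = 0%). A time point is decreased if signal falls significantly (2 sigma). Hits were called by the authors by a rule that is not shown; the count of time points alone does not decide it.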

The chains behind the UniProt entries cited, without tags or fusion partners. Where a name states a change or a piece, a line headed by the entry shows the natural chain unless it says otherwise.
UniProt P00519, whole entry: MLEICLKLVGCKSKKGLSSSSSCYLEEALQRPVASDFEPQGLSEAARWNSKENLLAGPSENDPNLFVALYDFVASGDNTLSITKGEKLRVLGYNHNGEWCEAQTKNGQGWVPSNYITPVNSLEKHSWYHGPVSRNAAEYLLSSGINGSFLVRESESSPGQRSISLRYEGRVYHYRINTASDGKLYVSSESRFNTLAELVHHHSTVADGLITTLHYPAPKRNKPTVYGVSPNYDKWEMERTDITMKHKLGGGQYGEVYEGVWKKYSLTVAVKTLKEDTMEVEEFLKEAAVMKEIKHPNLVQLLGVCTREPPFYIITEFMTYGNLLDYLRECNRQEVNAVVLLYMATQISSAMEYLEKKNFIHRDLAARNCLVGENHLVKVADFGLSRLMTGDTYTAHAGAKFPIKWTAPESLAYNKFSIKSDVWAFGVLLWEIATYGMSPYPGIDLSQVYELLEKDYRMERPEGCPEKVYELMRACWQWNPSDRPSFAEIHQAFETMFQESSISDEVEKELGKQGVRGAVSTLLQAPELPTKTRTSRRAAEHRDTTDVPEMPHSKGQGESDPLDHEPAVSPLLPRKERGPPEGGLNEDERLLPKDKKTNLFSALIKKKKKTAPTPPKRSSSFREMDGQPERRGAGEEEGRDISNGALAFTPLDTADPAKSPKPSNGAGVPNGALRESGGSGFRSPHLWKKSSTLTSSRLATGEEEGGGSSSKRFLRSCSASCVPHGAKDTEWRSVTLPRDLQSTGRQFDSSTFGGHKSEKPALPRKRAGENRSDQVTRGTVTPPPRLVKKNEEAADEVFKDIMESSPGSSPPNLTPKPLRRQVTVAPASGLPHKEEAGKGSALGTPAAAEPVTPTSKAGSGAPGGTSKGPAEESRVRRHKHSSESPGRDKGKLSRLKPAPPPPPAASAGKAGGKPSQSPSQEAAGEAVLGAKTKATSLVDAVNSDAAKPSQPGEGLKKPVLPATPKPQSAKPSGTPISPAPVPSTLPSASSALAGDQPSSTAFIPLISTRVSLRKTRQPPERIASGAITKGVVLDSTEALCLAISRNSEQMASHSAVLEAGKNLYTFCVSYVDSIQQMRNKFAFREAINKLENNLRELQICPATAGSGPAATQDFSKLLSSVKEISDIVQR
UniProt P31749: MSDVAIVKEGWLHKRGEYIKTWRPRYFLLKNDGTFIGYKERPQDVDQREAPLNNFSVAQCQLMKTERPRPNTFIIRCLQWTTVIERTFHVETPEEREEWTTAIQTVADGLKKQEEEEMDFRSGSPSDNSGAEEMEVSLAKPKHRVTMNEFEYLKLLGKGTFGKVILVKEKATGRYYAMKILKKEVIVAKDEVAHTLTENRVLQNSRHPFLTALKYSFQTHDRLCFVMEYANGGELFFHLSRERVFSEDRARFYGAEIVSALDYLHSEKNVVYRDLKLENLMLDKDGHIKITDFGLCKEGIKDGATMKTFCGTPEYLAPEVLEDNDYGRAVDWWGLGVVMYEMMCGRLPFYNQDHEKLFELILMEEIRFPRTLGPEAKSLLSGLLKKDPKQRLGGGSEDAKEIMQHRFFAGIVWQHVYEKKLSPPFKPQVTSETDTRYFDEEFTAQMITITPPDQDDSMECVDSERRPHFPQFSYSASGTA
UniProt Q9UM73: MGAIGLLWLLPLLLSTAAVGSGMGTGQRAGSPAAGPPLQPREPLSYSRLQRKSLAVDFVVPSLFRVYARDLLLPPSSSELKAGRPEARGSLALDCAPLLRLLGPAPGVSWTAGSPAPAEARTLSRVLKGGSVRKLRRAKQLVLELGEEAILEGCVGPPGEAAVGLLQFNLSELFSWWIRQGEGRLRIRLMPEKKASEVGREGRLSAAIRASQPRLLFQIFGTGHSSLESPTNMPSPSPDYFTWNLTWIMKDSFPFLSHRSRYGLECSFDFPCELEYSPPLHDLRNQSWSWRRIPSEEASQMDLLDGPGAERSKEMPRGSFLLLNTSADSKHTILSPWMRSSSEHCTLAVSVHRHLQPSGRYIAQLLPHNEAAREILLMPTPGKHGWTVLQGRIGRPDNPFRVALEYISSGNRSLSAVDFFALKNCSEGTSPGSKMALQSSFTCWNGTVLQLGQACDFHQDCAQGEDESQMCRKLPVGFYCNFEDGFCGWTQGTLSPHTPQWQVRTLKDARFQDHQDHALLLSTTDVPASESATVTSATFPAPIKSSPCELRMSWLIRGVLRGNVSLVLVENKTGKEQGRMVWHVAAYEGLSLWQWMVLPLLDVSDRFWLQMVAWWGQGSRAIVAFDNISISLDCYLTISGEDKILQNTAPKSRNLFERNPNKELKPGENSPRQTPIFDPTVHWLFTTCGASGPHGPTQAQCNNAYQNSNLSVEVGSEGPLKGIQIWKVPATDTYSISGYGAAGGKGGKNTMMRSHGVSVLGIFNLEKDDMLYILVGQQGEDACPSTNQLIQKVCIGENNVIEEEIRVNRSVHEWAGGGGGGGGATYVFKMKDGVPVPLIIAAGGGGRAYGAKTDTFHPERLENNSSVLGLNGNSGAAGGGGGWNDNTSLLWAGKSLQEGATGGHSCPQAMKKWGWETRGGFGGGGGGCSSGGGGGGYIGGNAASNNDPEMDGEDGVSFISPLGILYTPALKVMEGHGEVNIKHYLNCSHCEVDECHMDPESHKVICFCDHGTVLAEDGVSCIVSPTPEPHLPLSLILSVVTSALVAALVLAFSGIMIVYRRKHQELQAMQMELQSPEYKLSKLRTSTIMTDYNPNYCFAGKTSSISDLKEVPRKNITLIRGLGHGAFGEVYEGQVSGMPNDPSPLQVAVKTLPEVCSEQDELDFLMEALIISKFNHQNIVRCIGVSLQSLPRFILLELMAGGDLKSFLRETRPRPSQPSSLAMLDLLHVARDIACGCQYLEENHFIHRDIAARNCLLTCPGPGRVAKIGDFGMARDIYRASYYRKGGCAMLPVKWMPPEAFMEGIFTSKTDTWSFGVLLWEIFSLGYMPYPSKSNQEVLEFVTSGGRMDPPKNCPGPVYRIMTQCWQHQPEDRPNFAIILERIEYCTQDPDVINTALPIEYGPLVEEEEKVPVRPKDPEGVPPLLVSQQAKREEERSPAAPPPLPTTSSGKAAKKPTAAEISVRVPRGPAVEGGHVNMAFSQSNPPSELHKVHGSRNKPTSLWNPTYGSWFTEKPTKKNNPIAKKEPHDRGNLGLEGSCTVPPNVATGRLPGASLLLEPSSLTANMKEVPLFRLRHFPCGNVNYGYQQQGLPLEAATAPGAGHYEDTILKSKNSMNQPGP
UniProt P10398: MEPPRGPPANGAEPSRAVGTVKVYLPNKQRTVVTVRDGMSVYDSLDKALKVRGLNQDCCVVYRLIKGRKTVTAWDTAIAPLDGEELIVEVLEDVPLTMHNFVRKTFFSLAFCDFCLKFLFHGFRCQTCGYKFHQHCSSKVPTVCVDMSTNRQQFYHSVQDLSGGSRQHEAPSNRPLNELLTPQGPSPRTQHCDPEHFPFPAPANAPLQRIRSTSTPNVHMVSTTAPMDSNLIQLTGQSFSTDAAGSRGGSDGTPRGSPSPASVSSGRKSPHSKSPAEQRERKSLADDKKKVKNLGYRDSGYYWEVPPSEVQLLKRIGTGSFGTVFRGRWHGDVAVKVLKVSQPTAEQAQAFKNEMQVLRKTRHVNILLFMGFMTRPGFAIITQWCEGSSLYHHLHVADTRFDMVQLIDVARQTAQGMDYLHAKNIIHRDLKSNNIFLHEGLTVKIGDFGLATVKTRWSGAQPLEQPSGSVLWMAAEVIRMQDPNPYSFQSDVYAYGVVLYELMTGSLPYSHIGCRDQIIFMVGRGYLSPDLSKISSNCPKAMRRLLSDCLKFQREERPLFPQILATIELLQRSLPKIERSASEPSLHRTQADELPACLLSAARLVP
UniProt Q9UQB9: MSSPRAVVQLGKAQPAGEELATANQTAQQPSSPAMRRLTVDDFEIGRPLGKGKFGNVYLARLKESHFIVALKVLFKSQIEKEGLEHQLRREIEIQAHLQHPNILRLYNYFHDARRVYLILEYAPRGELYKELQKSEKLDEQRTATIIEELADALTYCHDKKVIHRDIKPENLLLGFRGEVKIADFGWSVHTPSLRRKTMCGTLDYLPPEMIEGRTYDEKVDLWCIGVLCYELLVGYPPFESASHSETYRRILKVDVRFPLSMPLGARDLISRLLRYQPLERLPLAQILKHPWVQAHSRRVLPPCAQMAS
UniProt P51451: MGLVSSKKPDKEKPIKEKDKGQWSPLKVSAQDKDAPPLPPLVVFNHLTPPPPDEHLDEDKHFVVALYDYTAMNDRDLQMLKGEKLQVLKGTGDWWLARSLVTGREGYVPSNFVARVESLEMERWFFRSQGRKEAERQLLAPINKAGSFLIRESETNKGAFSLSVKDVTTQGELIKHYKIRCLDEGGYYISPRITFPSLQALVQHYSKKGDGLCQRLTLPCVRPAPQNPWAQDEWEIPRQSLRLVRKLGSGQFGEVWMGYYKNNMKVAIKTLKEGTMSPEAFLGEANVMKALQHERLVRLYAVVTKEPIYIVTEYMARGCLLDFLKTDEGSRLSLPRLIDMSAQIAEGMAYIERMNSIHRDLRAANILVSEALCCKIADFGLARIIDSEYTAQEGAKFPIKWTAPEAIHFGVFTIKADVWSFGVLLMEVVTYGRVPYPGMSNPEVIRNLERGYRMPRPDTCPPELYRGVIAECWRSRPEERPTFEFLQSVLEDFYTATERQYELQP
UniProt Q06187: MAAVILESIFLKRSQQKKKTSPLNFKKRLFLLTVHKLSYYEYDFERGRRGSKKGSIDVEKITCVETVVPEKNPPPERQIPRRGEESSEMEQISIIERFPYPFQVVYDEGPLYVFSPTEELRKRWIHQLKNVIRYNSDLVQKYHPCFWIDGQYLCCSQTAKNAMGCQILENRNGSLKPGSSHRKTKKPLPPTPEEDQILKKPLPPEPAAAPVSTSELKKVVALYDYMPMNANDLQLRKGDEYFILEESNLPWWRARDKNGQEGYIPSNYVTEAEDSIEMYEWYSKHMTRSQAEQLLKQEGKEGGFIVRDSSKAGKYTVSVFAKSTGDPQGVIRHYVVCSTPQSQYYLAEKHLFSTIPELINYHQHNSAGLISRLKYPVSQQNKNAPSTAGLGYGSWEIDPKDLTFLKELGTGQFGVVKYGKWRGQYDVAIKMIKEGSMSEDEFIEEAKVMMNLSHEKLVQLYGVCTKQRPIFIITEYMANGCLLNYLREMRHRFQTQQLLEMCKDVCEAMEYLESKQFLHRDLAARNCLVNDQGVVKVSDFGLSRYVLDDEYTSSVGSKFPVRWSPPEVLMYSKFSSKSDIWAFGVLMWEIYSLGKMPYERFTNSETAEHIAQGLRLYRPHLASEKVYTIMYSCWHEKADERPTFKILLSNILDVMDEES
UniProt Q9UQM7, whole entry: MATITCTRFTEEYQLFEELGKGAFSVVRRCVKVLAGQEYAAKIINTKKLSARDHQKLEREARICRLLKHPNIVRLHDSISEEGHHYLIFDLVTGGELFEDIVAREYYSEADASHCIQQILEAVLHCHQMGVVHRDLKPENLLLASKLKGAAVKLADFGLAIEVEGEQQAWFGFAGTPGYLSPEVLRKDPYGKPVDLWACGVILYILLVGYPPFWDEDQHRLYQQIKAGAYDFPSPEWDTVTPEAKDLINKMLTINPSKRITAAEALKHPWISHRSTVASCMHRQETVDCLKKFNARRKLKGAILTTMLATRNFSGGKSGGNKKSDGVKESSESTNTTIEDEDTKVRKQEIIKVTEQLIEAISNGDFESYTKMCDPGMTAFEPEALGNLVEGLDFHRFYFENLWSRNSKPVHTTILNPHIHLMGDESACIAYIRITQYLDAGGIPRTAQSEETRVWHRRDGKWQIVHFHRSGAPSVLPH
UniProt Q00526: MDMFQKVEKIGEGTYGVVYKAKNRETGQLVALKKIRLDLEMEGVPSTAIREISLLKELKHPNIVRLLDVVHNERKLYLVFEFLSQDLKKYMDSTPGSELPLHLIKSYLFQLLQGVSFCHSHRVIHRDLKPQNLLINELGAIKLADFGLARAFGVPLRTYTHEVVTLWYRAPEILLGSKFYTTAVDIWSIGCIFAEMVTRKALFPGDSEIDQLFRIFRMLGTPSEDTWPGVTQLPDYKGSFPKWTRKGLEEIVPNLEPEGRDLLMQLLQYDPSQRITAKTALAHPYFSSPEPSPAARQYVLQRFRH
UniProt P11802: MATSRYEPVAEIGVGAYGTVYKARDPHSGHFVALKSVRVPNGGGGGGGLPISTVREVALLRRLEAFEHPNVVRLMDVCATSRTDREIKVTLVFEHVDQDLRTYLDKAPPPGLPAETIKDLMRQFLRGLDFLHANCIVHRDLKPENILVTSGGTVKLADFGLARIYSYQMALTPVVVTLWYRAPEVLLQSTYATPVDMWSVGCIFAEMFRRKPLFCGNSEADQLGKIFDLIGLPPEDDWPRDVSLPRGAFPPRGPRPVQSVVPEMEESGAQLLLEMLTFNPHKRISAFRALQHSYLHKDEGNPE

Experiments:
Test in all cases: kinase-Nluc reporter destabilization hit call (1 = scored as downregulated) (binary); higher = compound decreases kinase abundance
Conditions in all cases: K562; 2-18 h
[1] = biological target: ABL1 (UniProt P00519)
[2] = biological target: AKT1 (UniProt P31749)
[3] = biological target: ALK (UniProt Q9UM73)
[4] = biological target: ARAF (UniProt P10398)
[5] = biological target: AURKA (UniProt O14965)
[6] = biological target: AURKB (UniProt Q96GD4)
[7] = biological target: AURKC (UniProt Q9UQB9)
[8] = biological target: BLK (UniProt P51451)
[9] = biological target: BMX (UniProt P51813)
[10] = biological target: BRAF (UniProt P15056)
[11] = tested on: BRAF_V600E
[12] = biological target: BTK (UniProt Q06187)
[13] = biological target: CAMK2A (UniProt Q9UQM7)
[14] = biological target: CAMK2G (UniProt Q13555)
[15] = biological target: CDK10 (UniProt Q15131)
[16] = biological target: CDK2 (UniProt P24941)
[17] = biological target: CDK3 (UniProt Q00526)
[18] = biological target: CDK4 (UniProt P11802)
[19] = biological target: CDK5 (UniProt Q00535)
[20] = biological target: CDK6 (UniProt Q00534)

Measured: kinase-Nluc reporter destabilization hit call

O=C(Nc1nc2ccccc2[nH]1)c1cccc(-n2cccc2)c1 (10 µM)
inactive: [1] 0 | [2] 0 | [3] 0 | [4] 0 | [5] 0 | [6] 0 | [7] 0 | [8] 0 | [9] 0 | [10] 0 | [11] 0 | [12] 0 | [13] 0 | [14] 0 | [15] 0 | [16] 0 | [17] 0 | [18] 0 | [19] 0 | [20] 0

CS(=O)(=O)c1ccc(-c2cnc(N)c(C(=O)Nc3ccccc3)n2)cc1 (10 µM)
inactive: [1] 0 | [2] 0 | [3] 0 | [4] 0 | [5] 0 | [6] 0 | [7] 0 | [8] 0 | [9] 0 | [10] 0 | [11] 0 | [12] 0 | [13] 0 | [14] 0 | [15] 0 | [16] 0 | [17] 0 | [18] 0 | [19] 0 | [20] 0

C=C(CCC=C(C)C)[C@H]1CC[C@]2(C)[C@@H]1[C@H](O)C[C@@H]1[C@@]3(C)CC[C@H](O[C@@H]4O[C@H](CO)[C@@H](O)[C@H](O)[C@H]4O[C@@H]4O[C@H](CO)[C@@H](O)[C@H](O)[C@H]4O)C(C)(C)[C@@H]3CC[C@]12C [Ginsenoside Rk1] (10 µM)
inactive: [1] 0 | [2] 0 | [3] 0 | [4] 0 | [5] 0 | [6] 0 | [7] 0 | [8] 0 | [9] 0 | [10] 0 | [11] 0 | [12] 0 | [13] 0 | [14] 0 | [15] 0 | [16] 0 | [17] 0 | [18] 0 | [19] 0 | [20] 0

Cc1ccc2nc(NC(=O)CSc3nc4c(c(=O)n3-c3ccccc3)SCC4)sc2c1 (2 µM)
inactive: [1] 0 | [2] 0 | [3] 0 | [4] 0 | [5] 0 | [6] 0 | [7] 0 | [8] 0 | [9] 0 | [10] 0 | [11] 0 | [12] 0 | [13] 0 | [14] 0 | [15] 0 | [16] 0 | [17] 0 | [18] 0 | [19] 0 | [20] 0

CCn1c(C(=O)N(C2CC2)C2CC2)cc2c3c(ncn3C)c(Nc3cc(C)n(C)n3)nc21 (10 µM)
inactive: [1] 0 | [2] 0 | [3] 0 | [4] 0 | [5] 0 | [6] 0 | [7] 0 | [8] 0 | [9] 0 | [10] 0 | [11] 0 | [12] 0 | [13] 0 | [14] 0 | [15] 0 | [16] 0 | [17] 0 | [18] 0 | [19] 0 | [20] 0

O=C1NC(=O)/C(=C/c2ccc3c(c2)OC(F)(F)O3)S1 (10 µM)
inactive: [1] 0 | [2] 0 | [3] 0 | [4] 0 | [5] 0 | [6] 0 | [7] 0 | [8] 0 | [9] 0 | [10] 0 | [11] 0 | [12] 0 | [13] 0 | [14] 0 | [15] 0 | [16] 0 | [17] 0 | [18] 0 | [19] 0 | [20] 0

COCCO[C@@H]1[C@H](O)[C@@H](CO)O[C@H]1n1cnc2c(=O)[nH]c(N)nc21 [2′-O-(2-Methoxyethyl)guanosine] (10 µM)
inactive: [1] 0 | [2] 0 | [3] 0 | [4] 0 | [5] 0 | [6] 0 | [7] 0 | [8] 0 | [9] 0 | [10] 0 | [11] 0 | [12] 0 | [13] 0 | [14] 0 | [15] 0 | [16] 0 | [17] 0 | [18] 0 | [19] 0 | [20] 0

Nc1cc(Nc2ccc(S(N)(=O)=O)cc2)ncn1 (10 µM)
inactive: [1] 0 | [2] 0 | [3] 0 | [4] 0 | [5] 0 | [6] 0 | [7] 0 | [8] 0 | [9] 0 | [10] 0 | [11] 0 | [12] 0 | [13] 0 | [14] 0 | [15] 0 | [16] 0 | [17] 0 | [18] 0 | [19] 0 | [20] 0

COc1cc(N2CCC(N3CCN(C)CC3)CC2)ccc1Nc1ncc(Cl)c(Nc2ccccc2P(C)(C)=O)n1 [Brigatinib] (2 µM)
inactive: [1] 0 | [2] 0 | [3] 0 | [4] 0 | [5] 0 | [6] 0 | [7] 0 | [8] 0 | [9] 0 | [10] 0 | [11] 0 | [12] 0 | [13] 0 | [14] 0 | [15] 0 | [16] 0 | [17] 0 | [18] 0 | [19] 0 | [20] 0

COc1cc(S(C)(=O)=O)ccc1Nc1nc2ccc(-c3ccc(NC(=O)[C@H](C)c4ccc(F)cc4)cc3)cn2n1 [Empesertib] (10 µM)
inactive: [1] 0 | [2] 0 | [3] 0 | [4] 0 | [5] 0 | [6] 0 | [7] 0 | [8] 0 | [9] 0 | [10] 0 | [11] 0 | [12] 0 | [13] 0 | [14] 0 | [15] 0 | [16] 0 | [17] 0 | [18] 0 | [19] 0 | [20] 0

2 compounds drawn at random from the list so far, as already listed:
COc1cc(S(C)(=O)=O)ccc1Nc1nc2ccc(-c3ccc(NC(=O)[C@H](C)c4ccc(F)cc4)cc3)cn2n1 [Empesertib] (10 µM)
inactive: [1] 0 | [2] 0 | [3] 0 | [4] 0 | [5] 0 | [6] 0 | [7] 0 | [8] 0 | [9] 0 | [10] 0 | [11] 0 | [12] 0 | [13] 0 | [14] 0 | [15] 0 | [16] 0 | [17] 0 | [18] 0 | [19] 0 | [20] 0

Cc1ccc2nc(NC(=O)CSc3nc4c(c(=O)n3-c3ccccc3)SCC4)sc2c1 (2 µM)
inactive: [1] 0 | [2] 0 | [3] 0 | [4] 0 | [5] 0 | [6] 0 | [7] 0 | [8] 0 | [9] 0 | [10] 0 | [11] 0 | [12] 0 | [13] 0 | [14] 0 | [15] 0 | [16] 0 | [17] 0 | [18] 0 | [19] 0 | [20] 0

(more compounds)

CCOc1ccc(C(=O)Nc2ncc([N+](=O)[O-])s2)cc1 (10 µM)
inactive: [1] 0 | [2] 0 | [3] 0 | [4] 0 | [5] 0 | [6] 0 | [7] 0 | [8] 0 | [9] 0 | [10] 0 | [11] 0 | [12] 0 | [13] 0 | [14] 0 | [15] 0 | [16] 0 | [17] 0 | [18] 0 | [19] 0 | [20] 0

C=CC(=O)Nc1cccc(C)c1Nc1ncc2cc(-c3c(Cl)c(OC)cc(OC)c3Cl)ccc2n1 (2.5 µM)
inactive: [1] 0 | [2] 0 | [3] 0 | [4] 0 | [5] 0 | [6] 0 | [7] 0 | [8] 0 | [9] 0 | [10] 0 | [11] 0 | [12] 0 | [13] 0 | [14] 0 | [15] 0 | [16] 0 | [17] 0 | [18] 0 | [19] 0 | [20] 0

OC[C@H]1O[C@@H](Oc2cc3c(O)cc(O)cc3[o+]c2-c2cc(O)c(O)c(O)c2)[C@H](O)[C@@H](O)[C@@H]1O [Delphinidin 3-glucoside (chloride)] (10 µM)
inactive: [1] 0 | [2] 0 | [3] 0 | [4] 0 | [5] 0 | [6] 0 | [7] 0 | [8] 0 | [9] 0 | [10] 0 | [11] 0 | [12] 0 | [13] 0 | [14] 0 | [15] 0 | [16] 0 | [17] 0 | [18] 0 | [19] 0 | [20] 0

C[C@@H](c1ccc2nccn2c1)n1nnc2ncc(-c3cnn(C)c3)nc21 [Savolitinib] (10 µM)
inactive: [1] 0 | [2] 0 | [3] 0 | [4] 0 | [5] 0 | [6] 0 | [7] 0 | [8] 0 | [9] 0 | [10] 0 | [11] 0 | [12] 0 | [13] 0 | [14] 0 | [15] 0 | [16] 0 | [17] 0 | [18] 0 | [19] 0 | [20] 0

CC(C)CN(CC(=O)N1CCN(CC(OCc2ccc3ccccc3c2)c2ccc(Cl)cc2Cl)CC1)CC(C)C (stereo not given) [LYN-1604 (dihydrochloride)] (2.5 µM)
inactive: [1] 0 | [2] 0 | [3] 0 | [4] 0 | [5] 0 | [6] 0 | [7] 0 | [8] 0 | [9] 0 | [10] 0 | [11] 0 | [12] 0 | [13] 0 | [14] 0 | [15] 0 | [16] 0 | [17] 0 | [18] 0 | [19] 0 | [20] 0

COc1cc(N2CCN(C)CC2)ccc1Nc1ncc2c(n1)N(C1CCC1)C(=O)N(c1c(C)cccc1C)C2 (2.5 µM)
inactive: [1] 0 | [2] 0 | [3] 0 | [4] 0 | [5] 0 | [6] 0 | [7] 0 | [8] 0 | [9] 0 | [10] 0 | [11] 0 | [12] 0 | [13] 0 | [14] 0 | [15] 0 | [16] 0 | [17] 0 | [18] 0 | [19] 0 | [20] 0

O=C(O)CCc1ccc(O)c(O)c1 [Dihydrocaffeic acid] (10 µM)
inactive: [1] 0 | [2] 0 | [3] 0 | [4] 0 | [5] 0 | [6] 0 | [7] 0 | [8] 0 | [9] 0 | [10] 0 | [11] 0 | [12] 0 | [13] 0 | [14] 0 | [15] 0 | [16] 0 | [17] 0 | [18] 0 | [19] 0 | [20] 0

Cc1ccc(-c2c(C(=O)CF)n(CCCO)c3ncnc(N)c23)cc1 (10 µM)
inactive: [1] 0 | [2] 0 | [3] 0 | [4] 0 | [5] 0 | [6] 0 | [7] 0 | [8] 0 | [9] 0 | [10] 0 | [11] 0 | [12] 0 | [13] 0 | [14] 0 | [15] 0 | [16] 0 | [17] 0 | [18] 0 | [19] 0 | [20] 0
